Results published in patent US20170216452A1 (Pfizer Inc., priority 2015, published 2017).

Test: general procedure: solution-phase peptide synthesis; HATU

**Q.** For “2-methylalanyl-N-[(3R,4S,5S)-3-methoxy-1-{(2S)-2-[(1R,2R)-1-methoxy-2-methyl-3-oxo-3-{[(1 S)-2-phenyl-1-(1,3-thiazol-2-yl)ethyl]amino}propyl]pyrrolidin-1-yl}-5-methyl-1-oxoheptan-4-yl]-N-methyl-L-valinamide”, which step yield (late stage modification step) is on record?
**A.** Its step yield is 75%.

**Q.** With “N-[(9H-fluoren-9-ylmethoxy)carbonyl]-2-methylalanyl-N-[(3R,4S,5S)-3-methoxy-1-{(2S)-2-[(1R,2R)-1-methoxy-2-methyl-3-oxo-3-{[(1 S)-2-phenyl-1-(1,3-thiazol-2-yl)ethyl]amino}propyl]pyrrolidin-1-yl}-5-methyl-1-oxoheptan-4-yl]-N-methyl-L-valinamide” as the substance, how does the step yield (coupling step) read?
**A.** Its step yield is 74%.
